PubChem BioAssay AID1259308, NCATS, 2017
Purpose: 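Knock-downs that increase output of a recombinant reporter protein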 (primary screen). Cell system: human HEK293 embryonic kidney cells stably expressing firefly luciferase (HEK-CMV-Luc2-Hygro). Reagents: single siRNA against human genes, 0.8 pmol siRNA per well. Duration: 72 h. Measurement: 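Reporter luminescence and viable-cell signal on separate replicate plates, given as percent of non-targeting control and median/MAD z-scores, plus per-cell luciferase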. Reading the numbers: total luciferase, z-score and total luciferase, % of control: higher = more reporter protein produced. Active means: 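An siRNA counts as active if its total luciferase robust z-score exceeds 3; genes with two or more such siRNAs out of three were retested with fresh siRNAs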. Calls: active = raised luciferase; inactive = no rise.
Here is one part, drawn at random, of about 59,000 reagents tested. About 1,510 of them (2.6%) count as active. 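Calls use total luciferase alone and ignore viability, so some active siRNAs may act by altering cell number.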 Entries without a mark were called inactive. Reagents against one gene are numbered here. Further read-outs or replicates are left out here. No sequences are given here.

gene knocked down | reagent no. | total luciferase, z-score | total luciferase, % of control
PIDD1 | 1 | 0.868 | 99.2
PIDD1 | 2 | -0.887 | 64.2
PIDD1 | 3 | 0.135 | 84.6
GPR15LG | 1 | 2.72 | 136
GPR15LG | 2 | 1.83 | 118
GPR15LG | 3 | -0.947 | 63
H1-1 | 1 | 0.866 | 99.1
H1-1 | 2 | -0.754 | 66.9
H1-1 | 3 | -1.18 | 58.5

Part of the list above, set out differently.
PIDD1 #2
- total luciferase, z-score: -0.887
- total luciferase, % of control: 64.2

PIDD1 #3
- total luciferase, z-score: 0.135
- total luciferase, % of control: 84.6

GPR15LG #1
- total luciferase, z-score: 2.72
- total luciferase, % of control: 136

Next entries follow:
gene knocked down | reagent no. | total luciferase, z-score | total luciferase, % of control
BPTF | 1 | 1.98 | 121
BPTF | 2 | -1.26 | 56.9
BPTF | 3 | 1.63 | 114
C5orf24 | 1 | 0.472 | 91.3
C5orf24 | 2 | -1.77 | 46.6
C5orf24 | 3 | -0.576 | 70.4
DEDD | 1 | 0.297 | 87.8
DEDD | 2 | 0.192 | 85.7
DEDD | 3 | -1.8 | 46.1
SEPTIN11 | 1 | -0.423 | 73.5
SEPTIN11 | 2 | -0.293 | 76.1
SEPTIN11 | 3 | -0.728 | 67.4
NAXD | 1 | -0.348 | 75
NAXD | 2 | 0.0815 | 83.5
NAXD | 3 | 0.85 | 98.8
